Patent US6518268B1, “Telomerase inhibitors and methods of their use” (Geron Corporation, priority 1999, dated 2003)
Some results were stated once for a whole list of compounds, not compound by compound.

Protein sequences, listed by entry. Tags and fused reporters are not part of them. Lines headed by an entry give the natural chain unless they say otherwise; changes in a name come on top.
UniProt O14746: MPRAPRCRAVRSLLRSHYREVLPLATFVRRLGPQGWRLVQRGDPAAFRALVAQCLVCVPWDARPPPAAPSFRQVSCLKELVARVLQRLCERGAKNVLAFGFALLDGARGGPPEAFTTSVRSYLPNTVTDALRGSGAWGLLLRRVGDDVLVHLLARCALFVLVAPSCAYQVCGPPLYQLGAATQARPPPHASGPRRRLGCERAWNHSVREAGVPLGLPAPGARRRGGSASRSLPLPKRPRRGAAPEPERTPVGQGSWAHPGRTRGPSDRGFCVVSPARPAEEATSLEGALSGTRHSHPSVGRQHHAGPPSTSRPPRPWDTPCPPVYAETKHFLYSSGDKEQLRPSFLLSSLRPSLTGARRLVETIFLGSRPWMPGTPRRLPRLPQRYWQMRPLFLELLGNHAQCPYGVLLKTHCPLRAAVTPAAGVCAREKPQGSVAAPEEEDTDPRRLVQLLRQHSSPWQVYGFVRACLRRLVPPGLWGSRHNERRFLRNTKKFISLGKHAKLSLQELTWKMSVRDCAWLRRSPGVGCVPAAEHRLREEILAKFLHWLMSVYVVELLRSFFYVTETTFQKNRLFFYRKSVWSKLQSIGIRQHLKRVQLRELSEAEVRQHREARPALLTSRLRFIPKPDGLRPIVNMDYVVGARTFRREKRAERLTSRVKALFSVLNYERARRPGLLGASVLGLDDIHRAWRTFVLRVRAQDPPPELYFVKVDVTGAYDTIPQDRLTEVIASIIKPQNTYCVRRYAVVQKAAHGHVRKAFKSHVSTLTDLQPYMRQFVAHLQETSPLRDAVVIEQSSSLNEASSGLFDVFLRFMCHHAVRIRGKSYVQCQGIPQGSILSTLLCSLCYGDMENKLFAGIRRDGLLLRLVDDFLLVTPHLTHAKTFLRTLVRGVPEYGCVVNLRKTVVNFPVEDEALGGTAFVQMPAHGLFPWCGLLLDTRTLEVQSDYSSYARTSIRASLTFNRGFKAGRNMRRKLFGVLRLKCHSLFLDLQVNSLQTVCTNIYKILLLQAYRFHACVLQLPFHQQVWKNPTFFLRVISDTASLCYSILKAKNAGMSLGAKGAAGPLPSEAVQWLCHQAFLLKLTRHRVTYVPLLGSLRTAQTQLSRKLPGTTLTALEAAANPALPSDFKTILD

These molecules were tested against T1, telomerase (Homo sapiens, UniProt O14746) (assay: Bio-Tel FlashPlate telomerase activity assay).
T1 construct: expressed in transfected cells; host or cells: 293 cells over-expressing hTERT
Format: biochemical
For O=C1NC(=O)/C(=C/c2ccccc2-c2ccc(Cl)c(Cl)c2)S1 [Example 1, 5-(2-(3,4-Dichlorophenyl)benzylidene)thiazolidine-2,4-dione], the IC50 was < 100 µM.
With O=C1NC(=O)/C(=C/c2cccc(-c3ccc(Cl)c(Cl)c3)c2)S1 [Example 2, 5-(3-(3,4-Dichlorophenyl)benzylidene)thiazolidine-2,4-dione] the IC50 was < 100 µM.
In the case of O=C1NC(=O)/C(=C/c2ccc(OCc3ccc(Cl)c(Cl)c3)cc2)S1 [Example 3, 5-(4-(3,4-Dichlorobenzyloxy)benzylidene)thiazolidine-2,4-dione], the IC50 is reported as < 100 µM.
With O=C1NC(=O)/C(=C/c2ccccc2OCc2ccc(Cl)c(Cl)c2)S1 [Example 4, 5-(2-(3,4-Dichlorobenzyloxy)benzylidene)thiazolidine-2,4-dione] the IC50 was < 100 µM.
In the case of O=C1NC(=O)/C(=C/c2ccc(NC(=O)c3ccc(Cl)c(Cl)c3)cc2)S1 [Example 5, 5-(4-(3,4-Dichlorobenzamido)benzylidene)thiazolidine-2,4-dione], the IC50 is reported as < 100 µM.
O=C(Nc1ccc(/C=C2\SC(=O)NC2=O)cc1)Nc1ccc(Cl)c(Cl)c1 [Example 6, 5-(4-(N-3,4-Dichlorophenyureido)benzylidene)thiazolidine-2,4-dione] was tested, and the IC50 was < 100 µM.
In the case of O=C(Nc1ccc(Cl)c(Cl)c1)Nc1ccccc1/C=C1\SC(=O)NC1=O [Example 7, 5-(2-(N-3,4-Dichlorophenyureido)benzylidene)thiazolidine-2,4-dione], the IC50 is reported as < 100 µM.
In the case of O=C1NC(=O)/C(=C/c2ccccc2C(=O)Nc2ccc(Cl)c(Cl)c2)S1 [Example 8, 5-(2-(N-3,4-Dichlorophenylcarbamido)benzylidene)thiazolidine-2,4-dione], the IC50 is reported as < 100 µM.
With O=C1NC(=O)/C(=C/c2cccc(C(=O)Nc3ccc(Cl)c(Cl)c3)c2)S1 [Example 9, 5-(3-(N-3,4-Dichlorophenylcarbamido)benzylidene)thiazolidine-2,4-dione] the IC50 was < 100 µM.
With O=C1NC(=O)/C(=C/c2ccc(C(=O)Nc3ccc(Cl)c(Cl)c3)cc2)S1 [Example 10, 5-(4-(N-3,4-Dichlorophenylcarbamido)benzylidene)thiazolidine-2,4-dione] the IC50 was < 100 µM.
In the case of O=C1NC(=O)/C(=C/c2ccc(C(=O)Oc3ccc(Cl)c(Cl)c3)cc2)S1 [Example 12, 5-(4-(3,4-Dichlorophenoxycarbonyl)benzylidene)thiazolidine-2,4-dione], the IC50 is reported as < 100 µM.
O=C1NC(=O)/C(=C/c2ccccc2C(=O)Oc2ccc(Cl)c(Cl)c2)S1 [Example 13, 5-(2-(3,4-Dichlorophenoxycarbonyl)benzylidene)thiazolidine-2,4-dione] was tested, and the IC50 was < 100 µM.
O=C(Cc1ccc(Cl)c(Cl)c1)Oc1ccccc1/C=C1\SC(=O)NC1=O [Example 14, 5-(2-(3,4-Dichlorophenylacetoxy)benzylidene)thiazolidine-2,4-dione] was tested, and the IC50 was < 100 µM.
For O=C(Cc1ccc(Cl)c(Cl)c1)Oc1cccc(/C=C2\SC(=O)NC2=O)c1 [Example 15, 5-(3-(3,4-Dichlorophenylacetoxy)benzylidene)thiazolidine-2,4-dione], the IC50 was < 100 µM.
In the case of O=C(Cc1ccc(Cl)c(Cl)c1)Oc1ccc(/C=C2\SC(=O)NC2=O)cc1 [Example 16, 5-(4-(3,4-Dichlorophenylacetoxy)benzylidene)thiazolidine-2,4-dione], the IC50 is reported as < 100 µM.
With O=C1NC(=O)/C(=C/c2ccccc2OC(=O)c2ccc(Cl)c(Cl)c2)S1 [Example 17, 5-(2-(3,4-Dichlorobenzoyloxy)benzylidene)thiazolidine-2,4-dione] the IC50 was < 100 µM.
For O=C1NC(=O)/C(=C/c2cccc(OC(=O)c3ccc(Cl)c(Cl)c3)c2)S1 [Example 18, 5-(3-(3,4-Dichlorobenezoyloxy)benzylidene)thiazolidine-2,4-dione], the IC50 was < 100 µM.
With O=C1NC(=O)/C(=C/c2ccc(OC(=O)c3ccc(Cl)c(Cl)c3)cc2)S1 [Example 19, 5-(4-(3,4-Dichlorobenzoyloxy)benzylidene)thiazolidine-2,4-dione] the IC50 was < 100 µM.
With O=C1NC(=O)/C(=C/c2ccc(OCc3ccc(Cl)c(Cl)c3)c(OCc3ccc(Cl)c(Cl)c3)c2)S1 [Example 20, 5-(3,4-Bis-(3,4-dichlorobenzyloxy)benzylidine)thiazolidine-2,4-dione] the IC50 was < 100 µM.
O=C1NC(=O)/C(=C/c2ccccc2Oc2ccc(Cl)c(Cl)c2)S1 [Example 21, 5-(2-(3,4-Dichlorophenoxy)benzylidine)thiazolidine-2,4-dione] was tested, and the IC50 was < 100 µM.
For O=C1NC(=O)/C(=C/c2ccc(Oc3ccc(Cl)c(Cl)c3)cc2)S1 [Example 22, 5-(4-(3,4-Dichlorophenoxy)benzylidine)thiazolidine-2,4-dione], the IC50 was < 100 µM.
In the case of O=C1NC(=O)/C(=C/c2ccc(OCc3ccc(Cl)c(Cl)c3)cc2OCc2ccc(Cl)c(Cl)c2)S1 [Example 24, 5-(2,4-Bis-(3,4-dichlorobenzyloxy)benzylidine)thiazolidine-2,4-dione], the IC50 is reported as < 100 µM.
In the case of O=C1NC(=S)S/C1=C\c1cc(=O)[nH]c(SCc2ccc(Cl)c(Cl)c2)n1 [Example 25, 5-(2-(3,4-Dichlorobenzylthio)-3H-pyrimidin-4-on-6-ylmethylidene)rhodanine], the IC50 is reported as < 100 µM.
For O=C1NC(=S)S/C1=C\c1ccnc(SCc2ccc(Cl)c(Cl)c2)n1 [Example 26, 5-(2-(3,4-Dichlorobenzylthio)pyrimidin-4-ylmethylidene)rhodanine], the IC50 was < 100 µM.
For N#Cc1ccc(/C=C2\SC(=O)NC2=O)nc1SCc1ccc(Cl)c(Cl)c1 [Example 28, 5-(3-Cyano-2-(3,4-dichlorobenzylthio)pyridin-6-ylmethylidene)thiazolidine-2,4-dione], the IC50 was < 100 µM.
In the case of O=C1NC(=O)/C(=C/c2cccc(OCc3ccc(Cl)c(Cl)c3)c2)S1 [Example 29, 5-(3-(3,4-Dichlorobenzyloxy)benzylidene)thiazolidine-2,4-dione], the IC50 is reported as < 100 µM.
